## Screening data, single-dose tests

Protein sequences, listed by entry. Tags and fused reporters are not part of them. Residues count along the entry.
UniProt Q8IDJ8, 1-583: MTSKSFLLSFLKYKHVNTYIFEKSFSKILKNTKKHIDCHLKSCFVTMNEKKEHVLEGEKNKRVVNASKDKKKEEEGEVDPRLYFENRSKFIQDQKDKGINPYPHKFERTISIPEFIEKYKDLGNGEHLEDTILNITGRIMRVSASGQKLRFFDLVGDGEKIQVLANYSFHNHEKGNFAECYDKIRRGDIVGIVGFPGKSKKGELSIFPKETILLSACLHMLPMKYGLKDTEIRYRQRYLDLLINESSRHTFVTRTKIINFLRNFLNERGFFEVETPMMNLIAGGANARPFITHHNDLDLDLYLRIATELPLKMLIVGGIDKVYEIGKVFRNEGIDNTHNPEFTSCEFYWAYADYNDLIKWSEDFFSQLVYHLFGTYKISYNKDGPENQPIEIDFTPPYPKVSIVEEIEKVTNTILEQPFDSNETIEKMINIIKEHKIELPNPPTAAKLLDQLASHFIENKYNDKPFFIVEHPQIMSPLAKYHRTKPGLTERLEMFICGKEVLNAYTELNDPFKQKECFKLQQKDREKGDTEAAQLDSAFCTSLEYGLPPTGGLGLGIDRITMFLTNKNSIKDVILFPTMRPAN
UniProt P9WNZ1, whole entry: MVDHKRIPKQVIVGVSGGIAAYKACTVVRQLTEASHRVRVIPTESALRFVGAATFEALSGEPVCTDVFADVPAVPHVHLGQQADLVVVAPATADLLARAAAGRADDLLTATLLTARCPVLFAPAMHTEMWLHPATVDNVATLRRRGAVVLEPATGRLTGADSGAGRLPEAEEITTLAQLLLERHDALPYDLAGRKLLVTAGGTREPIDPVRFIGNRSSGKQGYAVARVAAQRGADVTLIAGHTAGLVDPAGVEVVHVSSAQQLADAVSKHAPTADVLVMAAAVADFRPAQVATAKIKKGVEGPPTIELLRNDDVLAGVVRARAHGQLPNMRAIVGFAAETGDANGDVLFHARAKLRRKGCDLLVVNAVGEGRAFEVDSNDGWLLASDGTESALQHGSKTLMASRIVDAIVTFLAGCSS

From ChEMBL document CHEMBL3988442, “University of Dundee, Small-Polar-MMV Screening Library” (2021).

A: 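Lysine-tRNA ligase, Plasmodium falciparum 3D7 (UniProt Q8IDJ8). Enzyme assay of the cytosolic lysyl-tRNA synthetase in 384-well plates, read by luminescence. Compounds at 30 µM. Higher reads as stronger inhibition, judged from the few compounds that gave an IC50. About 69,000 compounds were tested under these conditions; 0.071% (about 49) showed 50% or more at least once.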
B: 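Assay of Toxoplasma gondii numbers, read through their beta-galactosidase reporter with a colour substrate. Concentration: 10 µM. Higher reads as fewer parasites (inferred from which compounds were picked for retests). About 67,000 compounds were tested under these conditions; 0.38% (about 260) showed 50% or more at least once.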
C: 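Enzyme assay of CoaBC with a phosphate dye (Biomol Green) read at 650 nm. Target: Coenzyme A biosynthesis protein CoaBC, Mycobacterium tuberculosis (UniProt P9WNZ1). Concentration: 30 µM. Higher reads as stronger inhibition, judged from the few compounds that gave an IC50. Most strong results did not repeat in a second test. Size under these conditions: about 67,000 compounds, about 40 of them at 50% or above in at least one test.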

Values are the deposited “Percent Effect”, in %. How 0% and 100% were set is not recorded. Most values in the screen are low, and negative values occur. This is an unselected part of the compounds tested. A dash means the value is not listed here; it may have been measured.

SMILES | A | B | C
[H][C@]12CCN(S(=O)(=O)c3ccc(C)cc3)[C@@]1([H])[C@@H](NC(=O)c1[nH]ncc1Br)C2 | - | 9.466 | -
Cc1cc(C)cc(OCn2ccc(C(=O)O)n2)c1 | 4.56 | -0.8754 | -0.2309
O=CO.c1cc2nccc(CC3CCCN(Cc4c[nH]cn4)CC3)c2cn1 (configuration not stated) | - | 8.723 | -
CC(=O)Nc1nc(C(=O)N2CCCC2c2noc(C)n2)cs1 (configuration not stated) | -2.168 | 0.7411 | -1.446
Cc1cncc(NC(=O)c2ccc(CN3CCCC(C(N)=O)C3)cc2)c1 (configuration not stated) | 3.732 | 3.084 | -1.148
Cc1nn(C)c(C)c1OCC(=O)NCc1cccc(CO)c1 | 1.7 | -8.281 | 2.41
COC1CCN(C(=O)CC2CCCC2)CC(=O)N(C)c2ccccc21 (configuration not stated) | 2.023 | -46.18 | -1.695
[H][C@@]12CCN(S(=O)(=O)C3CC3)C[C@@]1([H])O[C@@H](c1ccnc(C)n1)C2 | - | 27.03 | -
O=C(O)C(F)(F)F.[H][C@@]12CCCO[C@]1([H])[C@H](NS(C)(=O)=O)CN(Cc1c(C)noc1C)C2 | - | 10.65 | -
Cc1ccc(Cl)cc1-n1nnnc1C1(N2CCCC2)CCCCC1 | 0.5658 | -8.1 | 3.602
O=C(c1ccccc1-c1nnn[nH]1)N1CCOC(C(F)(F)F)C1 (configuration not stated) | 2.833 | 3.995 | -
COCCN1CCCC12CCN(c1ncccn1)CC2.O=C(O)C(F)(F)F | - | -4.063 | -
COCc1cncc2c1CCN(Cc1cccs1)C2 | -0.9117 | - | 5.647
CC(=O)Nc1nc(C2CN(C(=O)C3CCC3)C2)cs1 | -0.4406 | 3.933 | 2.349
COc1cc(C2C3=C(COC3=O)Nc3[nH]nc(C)c32)cc2c1OCO2 (configuration not stated) | 0.9056 | 18.11 | 1.927
CCc1nccn1C1CCCN(C(=O)c2ccc(N(C)C)nn2)C1 (configuration not stated) | -3.335 | 4.714 | -1.895
COc1ccc(C(=O)N2CCCC2c2ccco2)cc1OC (configuration not stated) | 2.568 | -2.55 | 4.183
CCC(=O)NCCCn1c(-c2cccnc2C)cc2cccnc21.Cl | - | -6.34 | -
CC(C)c1nn(C)c(N(C)C)c1CNC1CCCCNC1=O (configuration not stated) | 6.386 | 0.6732 | -6.25
COCCN1C[C@H]2CN(C(=O)C3CC3)CCN2C1=O | 3.094 | - | 3.386
CCn1cc(-c2cc(C(F)F)n3nc(CCC(=O)O)nc3n2)cn1 | 1.036 | -10.8 | -1.104
CSc1ccc(C(=O)N2C[C@H]3CC[C@@H]2CN(Cc2cccnc2)C3)cc1 | 4.049 | - | 5.144
COC(=O)CNC(=O)C1(NC(=O)c2ccc3[nH]ncc3c2)CCCC1 | 10.49 | -8.229 | 5.579
COc1ccccc1OCCNc1snc(Cl)c1C#N | 6.837 | -5.187 | 1.768
CC(C)CSCCCNC(=O)C1CCOC1 (configuration not stated) | 1.07 | -8.038 | 2.913
CC(NCc1ccncc1)c1cc2c(cc1Br)OCCO2 (configuration not stated) | 6.643 | -0.2582 | -1.208
CS(=O)(=O)c1ccc(C(=O)NCCNc2ncccn2)cc1 | 2.051 | -17.23 | 1.173
O=C(CN1CCCC1=O)NCc1cccnc1Oc1ccc(F)c(F)c1 | 1.212 | -6.563 | -1.463
O=C(c1c[nH]nc1-c1cccc(F)c1)N1CCNC(c2ccccc2)C1 (configuration not stated) | 5.835 | 14.16 | 7.438
Cc1nn(C)c(C)c1C1CCCN1Cc1nc(-c2ccco2)no1 (configuration not stated) | 3.363 | -31.88 | 14.84
CCn1cc(CN(C)S(=O)(=O)c2cnn(CC)c2C)c(C)n1 | 4.344 | -82.22 | 6.675
Cc1nc(CN2CCCN(CCCc3ccccc3)CC2)no1 | 5.264 | -5.868 | -27.25
O=C1CCC(=O)c2oc3ccccc3c2N1 | 4.647 | 5.309 | 1.02
FC1(F)CCN(Cc2ccncc2)CC12CCN(Cc1ccccn1)C2 (configuration not stated) | -9.326 | - | 3.085
Cc1nc(C)n(CC2CCCCN2c2ncnc3ccsc23)n1 (configuration not stated) | -1.832 | 20.02 | 8.075
Cc1c(CN2CCCC(c3[nH]ncc3S(C)(=O)=O)C2)cnn1C (configuration not stated) | 6.362 | -1.022 | -1.44
CN(C)c1ccc(NC(=O)NCc2cccnc2N(C)C)cn1 | -0.3458 | -9.878 | 2.151
[H][C@@]12CCN(C(=O)c3cc(C)[nH]c3C)C[C@@]1([H])O[C@@H](c1ccncn1)C2 | - | 0.1784 | -
CCc1ccc(C(C)NC(=O)CN(C)Cc2ccc(C)o2)cc1 (configuration not stated) | 9.527 | 5.322 | 10.71
Cc1ccc(CN2Cc3nnn(C)c3C(COCc3ccccc3)C2)s1.O=C(O)C(F)(F)F (configuration not stated) | - | 57.56 | -
CCCN(C(=O)CN1CCN(CCO)CC1)C1=CCCCC1 | 1.662 | -3.433 | 3.043
CCc1ocnc1C(=O)N1CCOC(CCCC(C)C)C1 (configuration not stated) | -0.5916 | 0.1371 | -0.7856
O=C(Cc1cccc(F)c1F)N1CCOC(c2cccc(O)c2)C1 (configuration not stated) | 4.087 | 2.913 | -
CC(C(=O)NN1CCOCC1)n1nc(C(F)(F)F)c(Cl)c1C1CC1 (configuration not stated) | 2.487 | 10.36 | -3.33
Cc1cccc(C(=O)N2CCC[C@]3(C[C@@H](OCC4CC4)CO3)C2)n1 | 2.844 | - | 5
CNC(=O)[C@H]1CC[C@@H]2[C@@H](CCN2c2ncccn2)O1 | -0.1029 | - | 14.96
CN1CC[C@@H]2[C@@H]1CCN2Cc1ccc2c(c1)OCO2 | -1.721 | - | 3.562
O=C(CCc1ccccc1)Nc1ncccc1OC(F)F | 7.352 | -1.919 | 4.219
CC(=O)N1CCc2ncn(C)c2C1C(=O)N1CCCC1.O=C(O)C(F)(F)F (configuration not stated) | - | -0.9564 | -
Cc1cc(C)n(Cc2cc(C(=O)N3CCCCC3c3nccs3)n[nH]2)n1 (configuration not stated) | -2.513 | - | -2.309
O=C(O)C(F)(F)F.[H][C@@]12CCN(CCc3ccccc3)C[C@@]1([H])[C@H](C(=O)NCC1CC1)CCO2 | - | -11.91 | -
Cc1cccc(-c2noc(C)c2C(=O)NC2CCCOC2)c1 (configuration not stated) | 4.769 | - | -8.385
C[C@@H]1CN(C(=O)c2ccc[nH]2)C[C@]12CCN(CCN1CCCC1)C2=O | 1.719 | - | 0.7317
OCc1cc2ccccc2nc1N1CCCCC1 | -11.79 | -0.5391 | -3.269
COCC(=O)N1CCC(c2nccn2CC2CC2)CC1 | 1.318 | -8.194 | 7.889
O=C(Nc1ccc2c(c1)OCO2)N1CCN(CCn2ccnc2)CC1 | 3.665 | -4.225 | -6.723
CCNc1cc2c(nn1)CCN(C(=O)c1cc3cc(C)ccc3o1)C2 | 0.8249 | -10.89 | -6.527
O=C(Nc1cccnc1)[C@H]1CN(Cc2nccs2)C[C@H]2OCC[C@@H]12 | -8.687 | - | 3.109
COc1cccc2sc(N3CC(OC(C)=O)C3)nc12 | 1.906 | -4.277 | 7.761
Cn1ccc2c(C(=O)N3CCCC3c3noc(C4CC4)n3)cccc21 (configuration not stated) | 4.598 | -9.186 | -8.409
Cc1nc(N(C)CCN(C)C)c2cnn(C)c2n1 | -8.3 | -1.465 | 5.882
CC(Cn1cccn1)C(=O)N1CCC(Nc2cccnn2)CC1 (configuration not stated) | 2.253 | 0.769 | 4.274
Cc1nc(N2CCCC2)nc2c1CCN(C(=O)C1CCCC1)CC2 | 6.542 | 2.271 | 5.249
COc1ccccc1OCC(=O)NCC(C)(O)c1ccccc1 (configuration not stated) | -0.5751 | 1.539 | 2.545
CCn1ccnc1-c1nc2cc(S(=O)(=O)N3CCCC3)ccc2n1C | -1.449 | -2.627 | 0.2132
Cc1nccc(N2CCN(C3CCOCC3)CC(C(=O)N(C)C)C2)n1 (configuration not stated) | -0.9321 | -10.67 | 5.097
N#Cc1cccc(CN2CC[C@@H]3CN(c4ncccn4)CCO[C@@H]3C2)c1 | 0.4357 | - | 0.2475

Once more, the final 4:

SMILES	A	B	C
COc1ccccc1OCC(=O)NCC(C)(O)c1ccccc1 (configuration not stated)	-0.5751	1.539	2.545
CCn1ccnc1-c1nc2cc(S(=O)(=O)N3CCCC3)ccc2n1C	-1.449	-2.627	0.2132
Cc1nccc(N2CCN(C3CCOCC3)CC(C(=O)N(C)C)C2)n1 (configuration not stated)	-0.9321	-10.67	5.097
N#Cc1cccc(CN2CC[C@@H]3CN(c4ncccn4)CCO[C@@H]3C2)c1	0.4357	-	0.2475